SMILES strings stand for the structures. This is one part of the list. Values are raw readings; no control value is given beside them.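 First-pass screen: polymyxin B was added at a level that permeabilizes the Salmonella outer membrane while sparing the inner membrane. DMSO wells, with and without polymyxin B, defined maximum growth. Because plates differed from one another, each plate's data were ranked separately and the compounds with the lowest OD600 were carried forward as hits.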

In this test the test system is Salmonella enterica serovar Typhimurium SL1344. Kind of test: bacterial growth OD600 after 18 h with compound and polymyxin B; higher = more bacterial growth (less inhibition). Conditions: 50 µM, Mueller-Hinton broth.

`Cc1nccn1-c1ccc(NC(=O)C2CCCN(Cc3ccc4nonc4c3)C2)cc1` (stereo unspecified): where the note is “polymyxin B 1 µg/mL”, the “bacterial growth OD600” value is 0.807. As for `CCOC(=O)C1(CC2CC2)CCN(C(=O)CCc2nc3cc(F)ccc3[nH]2)CC1`, the “bacterial growth OD600” value (polymyxin B 0.75 µg/mL) stood at 0.669. In the case of `Cc1cc(Cl)c2oc(C(=O)NCC(C)(C)N3CCOCC3)c(C)c2c1`, the “bacterial growth OD600” value (polymyxin B 1 µg/mL) was found to be 0.968. As for `COc1cccc(CNC(=O)CCC2CCCN(C(=O)c3[nH]nc4c3CCCC4)C2)c1` (stereo unspecified), the “bacterial growth OD600” value (polymyxin B 1 µg/mL) is 1.38. Still for that read-out and setting: as for `CC(C)(C)CN1CCC(N2CCC(C(=O)NCc3cccnc3)CC2)CC1`, the figure is 1.07; as for `COc1ccc(OC2CCN(C(C)=O)CC2)c(C(=O)N(C)CC(O)c2ccccc2)c1` (stereo unspecified), 1.26. Regarding `O=C(C1CCC1)N1CCc2onc(-c3ccc(F)c(F)c3)c2C1`, for the setting “polymyxin B 0.75 µg/mL”, the “bacterial growth OD600” value worked out at 0.737. Turning to `COc1ccccc1OCC(=O)N1CCC(C2(C)NC(=O)N(Cc3ccc(F)cc3)C2=O)CC1` (stereo unspecified), the “bacterial growth OD600” value (polymyxin B 0.75 µg/mL) is 0.929.

With `Cc1oc(-c2ccccc2NS(=O)(=O)Cc2ccccc2)nc1CNC(=O)CCn1cccn1`, the “bacterial growth OD600” value (polymyxin B 0.75 µg/mL) is 0.841. On to `CCC(CC)CN1CCC(N2CCC(C(=O)NCc3cccnc3)CC2)CC1`, for which the “bacterial growth OD600” value (polymyxin B 1 µg/mL) was determined as 1.26. On the same count and under the same terms, as for `O=C(NCC1CCCCO1)c1coc(COc2cccc3cccnc23)n1` (stereo unspecified), the figure is 0.968; as for `COc1ccc(Cl)cc1C(=O)C1CCCN(Cc2cccn2-c2nccs2)C1` (stereo unspecified), 1.01. Take `C[C@@H]1CN(Cc2nnnn2CC(=O)NC2CCN(Cc3ccccc3)CC2)C[C@H](C)O1`: where the note is “polymyxin B 0.75 µg/mL”, the “bacterial growth OD600” value turned out to be 0.789. As to `CSCCC(=O)N1CCC(C2CCN(Cc3cccnc3)CC2)C1` (stereo unspecified), where the note is “polymyxin B 0.75 µg/mL”, the “bacterial growth OD600” value was determined as 0.868.

For the molecule `O=S(=O)(c1ccccc1)N1CCc2[nH]nc(-c3ccccc3F)c2C1`, the “bacterial growth OD600” value (polymyxin B 0.75 µg/mL) came out at 0.514.

`COc1ccc(-c2n[nH]cc2CN2CCC(n3nccc3NC(=O)C(C)(C)C)CC2)cc1`: the “bacterial growth OD600” value (polymyxin B 1 µg/mL) was 0.915. In the case of `O=C(c1ccsc1)N1CCc2[nH]nc(-c3ccc(F)c(F)c3)c2C1`, the “bacterial growth OD600” value (polymyxin B 0.75 µg/mL) was 0.006. Turning to `COC(=O)[C@@H](NC1CCN(c2ccc(NS(=O)(=O)N(C)C)cc2)CC1)c1ccccc1`, where the note is “polymyxin B 0.75 µg/mL”, the “bacterial growth OD600” value amounted to 0.852. Regarding `CC(C)N1CCC(CNC(=O)c2coc(COc3cccc(F)c3F)n2)CC1`, under “polymyxin B 1 µg/mL”, the “bacterial growth OD600” value is 0.969. With `CCN(CC)C(=O)C1CCCN(Cc2ccc3c(c2)CN(Cc2cc(OC)cc(OC)c2)CCO3)C1` (stereo unspecified), for the setting “polymyxin B 0.75 µg/mL”, the “bacterial growth OD600” value was found to be 0.848. In the case of `COCc1ccc(C(=O)NCc2nc(NCCCc3ccccc3)c3ccccc3n2)o1`, the “bacterial growth OD600” value (polymyxin B 0.75 µg/mL) came out at 0.719. As to `CCCS(=O)(=O)NCc1cccnc1N1CCN(c2ccccc2C)CC1`, the “bacterial growth OD600” value (polymyxin B 0.75 µg/mL) came to 0.639. As for `O=C(NCC1CCCCC1)C1CCC(=O)N(CCc2cccc(F)c2)C1` (stereo unspecified), where the note is “polymyxin B 1 µg/mL”, the “bacterial growth OD600” value worked out at 0.878.

Consider `O=C(CCC1CCCN(Cc2cnc(N3CCOCC3)s2)C1)Nc1ccccc1F` (stereo unspecified), for which, under “polymyxin B 1 µg/mL”, the “bacterial growth OD600” value worked out at 0.859. The same measure, in the same setting: to `Cc1ccc(SC2CCN(C(=O)C3CCC(=O)N(C4CC4)C3)CC2)cc1` (stereo unspecified) belongs 0.927; to `C#Cc1ccc(CN2CCC(Oc3cc(OC)ccc3C(=O)NC3CC3)CC2)cc1`, 1.17; to `CC(C)c1nccn1Cc1cc(C(=O)N2CCCN(Cc3ccccn3)CC2)n[nH]1`, 0.964. Same read-out and setting: as for `Cc1cccc(-c2cccc(NC(=O)C3CCCN(C(=O)c4ncoc4C)C3)c2)c1` (stereo unspecified), the figure is 0.486. `O=C(c1coc(COc2ccccc2)n1)N1CCCCCC1`: the “bacterial growth OD600” value (polymyxin B 1 µg/mL) was 0.856.

In the case of `CN1CCCN(c2ccc(-c3nc(COc4ccccc4)no3)cn2)CC1`, the “bacterial growth OD600” value (polymyxin B 1 µg/mL) came to 0.759. With `CCC(O)C1CCN(c2nc3nonc3nc2NC2CCCC2)CC1` (stereo unspecified), the “bacterial growth OD600” value (polymyxin B 1 µg/mL) amounted to 0.886.

The values above are taken from the supplement of paper PMC12889115.
